Results published in the supplement of paper PMC8728848.
The list shows a part of the results.

What was measured:
Experiment in all cases: glycan array binding signal (z-score within array); higher = stronger binding
Details in all cases: glycan notation: IUPAC condensed, linker removed
[1] = biological target: GlcNAc(b1-4)[GlcNAc(b1-6)]GalNAc
How it was run: (§1)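 The binding signal is a Z-score computed within each array and averaged over linkers. Arrays of the same protein sequence at different concentrations or buffers were also averaged together. Data originate from 3228 arrays in the Consortium for Functional Glycomics database, kept only where the protein sequence was available.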

[2] = biological target: GlcNAc(b1-6)Gal(b1-4)GlcNAc
How it was run: as §1

GlcNAc(b1-6)GalNAc = biological target: GlcNAc(b1-6)GalNAc
How it was run: as §1

GlcNAc3Prop(b1-4)GlcNAc = biological target: GlcNAc3Prop(b1-4)GlcNAc
How it was run: as §1

Kdn(a2-3)Gal(b1-3)GlcNAc = biological target: Kdn(a2-3)Gal(b1-3)GlcNAc
How it was run: as §1

Kdn(a2-3)Gal(b1-4)GlcNAc = biological target: Kdn(a2-3)Gal(b1-4)GlcNAc
How it was run: as §1

[3] = biological target: Man(a1-2)Man(a1-2)Man(a1-3)Man
How it was run: as §1

[4] = biological target: Man(a1-2)Man(a1-2)Man(a1-6)[Man(a1-3)]Man
How it was run: as §1

Man(a1-2)Man(a1-3)Man = biological target: Man(a1-2)Man(a1-3)Man
How it was run: as §1

[5] = biological target: Man(a1-2)Man(a1-3)[Man(a1-2)Man(a1-6)]Man
How it was run: as §1

[6] = biological target: Man(a1-2)Man(a1-3)[Man(a1-2)Man(a1-6)]Man(a1-6)[Man(a1-2)Man(a1-2)Man(a1-3)]Man
How it was run: as §1

[7] = biological target: Man(a1-2)Man(a1-3)[Man(a1-2)Man(a1-6)]Man(a1-6)[Man(a1-2)Man(a1-2)Man(a1-3)]Man(b1-4)GlcNAc(b1-4)GlcNAc
How it was run: as §1

[8] = biological target: Man(a1-2)Man(a1-3)[Man(a1-6)]Man(a1-6)[Man(a1-2)Man(a1-3)]Man(b1-4)GlcNAc(b1-4)GlcNAc
How it was run: as §1

[9] = biological target: Man(a1-2)Man(a1-6)[Man(a1-3)]Man(a1-6)[Man(a1-2)Man(a1-2)Man(a1-3)]Man
How it was run: as §1

[10] = biological target: Man(a1-2)Man(a1-6)[Man(a1-3)]Man(a1-6)[Man(a1-2)Man(a1-2)Man(a1-3)]Man(b1-4)GlcNAc(b1-4)GlcNAc
How it was run: as §1

Man(a1-3)[Man(a1-6)]Man = biological target: Man(a1-3)[Man(a1-6)]Man
How it was run: as §1

[11] = biological target: Man(a1-3)[Man(a1-6)]Man(a1-6)[Man(a1-2)Man(a1-3)]Man(b1-4)GlcNAc(b1-4)GlcNAc
How it was run: as §1

[12] = biological target: Man(a1-3)[Man(a1-6)]Man(a1-6)[Man(a1-3)]Man
How it was run: as §1

[13] = biological target: Man(a1-3)[Man(a1-6)]Man(a1-6)[Man(a1-3)]Man(b1-4)GlcNAc(b1-4)GlcNAc
How it was run: as §1

[14] = biological target: Man(a1-3)[Man(a1-6)]Man(b1-4)GlcNAc(b1-4)GlcNAc
How it was run: as §1

Man(a1-6)Man = biological target: Man(a1-6)Man
How it was run: as §1

Man(b1-4)GlcNAc = biological target: Man(b1-4)GlcNAc
How it was run: as §1

Neu5Ac(a2-3)Gal = biological target: Neu5Ac(a2-3)Gal
How it was run: as §1

[15] = biological target: Neu5Ac(a2-3)Gal(b1-3)GalNAc
How it was run: as §1

[16] = biological target: Neu5Ac(a2-3)Gal(b1-3)GalNAc(b1-3)Gal(a1-4)Gal(b1-4)Glc
How it was run: as §1

[17] = biological target: Neu5Ac(a2-3)Gal(b1-3)GalNAc(b1-3)Gal(b1-4)GlcNAc
How it was run: as §1

[18] = biological target: Neu5Ac(a2-3)Gal(b1-3)GalNAc(b1-4)[Neu5Ac(a2-3)]Gal(b1-4)Glc
How it was run: as §1

[19] = biological target: Neu5Ac(a2-3)Gal(b1-3)GalNAc6S
How it was run: as §1

[20] = biological target: Neu5Ac(a2-3)Gal(b1-3)GlcNAc
How it was run: as §1

[21] = biological target: Neu5Ac(a2-3)Gal(b1-3)GlcNAc(b1-3)Gal(b1-3)GlcNAc
How it was run: as §1

[22] = biological target: Neu5Ac(a2-3)Gal(b1-3)GlcNAc6S
How it was run: as §1

[23] = biological target: Neu5Ac(a2-3)Gal(b1-3)[Fuc(a1-4)]GlcNAc
How it was run: as §1

[24] = biological target: Neu5Ac(a2-3)Gal(b1-3)[Fuc(a1-4)]GlcNAc(b1-3)Gal(b1-4)[Fuc(a1-3)]GlcNAc
How it was run: as §1

[25] = biological target: Neu5Ac(a2-3)Gal(b1-3)[Neu5Ac(a2-3)Gal(b1-4)]GlcNAc
How it was run: as §1

[26] = biological target: Neu5Ac(a2-3)Gal(b1-3)[Neu5Ac(a2-6)]GalNAc
How it was run: as §1

Neu5Ac(a2-3)Gal(b1-4)Glc = biological target: Neu5Ac(a2-3)Gal(b1-4)Glc
How it was run: as §1

[27] = biological target: Neu5Ac(a2-3)Gal(b1-4)GlcNAc
How it was run: as §1

[28] = biological target: Neu5Ac(a2-3)Gal(b1-4)GlcNAc(b1-2)Man(a1-3)[GlcNAc(b1-2)Man(b1-4)GlcNAc(b1-2)Man(a1-6)]Man(b1-4)GlcNAc(b1-4)GlcNAc
How it was run: as §1

[29] = biological target: Neu5Ac(a2-3)Gal(b1-4)GlcNAc(b1-2)Man(a1-3)[Neu5Ac(a2-6)Gal(b1-4)GlcNAc(b1-2)Man(a1-6)]Man(b1-4)GlcNAc(b1-4)GlcNAc
How it was run: as §1

[30] = biological target: Neu5Ac(a2-3)Gal(b1-4)GlcNAc(b1-3)Gal(b1-3)GlcNAc
How it was run: as §1

[31] = biological target: Neu5Ac(a2-3)Gal(b1-4)GlcNAc(b1-3)Gal(b1-4)GlcNAc
How it was run: as §1

[32] = biological target: Neu5Ac(a2-3)Gal(b1-4)GlcNAc(b1-3)Gal(b1-4)GlcNAc(b1-3)Gal(b1-4)GlcNAc
How it was run: as §1

[33] = biological target: Neu5Ac(a2-3)Gal(b1-4)GlcNAc(b1-3)Gal(b1-4)[Fuc(a1-3)]GlcNAc
How it was run: as §1

[34] = biological target: Neu5Ac(a2-3)Gal(b1-4)GlcNAc(b1-6)[Gal(b1-3)]GalNAc
How it was run: as §1

[35] = biological target: Neu5Ac(a2-3)Gal(b1-4)GlcNAc(b1-6)[Neu5Ac(a2-3)Gal(b1-3)]GalNAc
How it was run: as §1

B1: SLLPI (Homo sapiens), Q8IXA5 (protein)
chain: MVSALRGAPLIRVHSSPVSSPSVSGPRRLVSCLSSQSSALSQSGGGSTSAAGIEARSRALRRRWCPAGIMLLALVCLLSCLLPSSEAKLYGRCELARVLHDFGLDGYRGYSLADWVCLAYFTSGFNAAALDYEADGSTNNGIFQINSRRWCSNLTPNVPNVCRMYCSDLLNPNLKDTVICAMKITQEPQGLGYWEAWRHHCQGKDLTEWVDGCDF
glycan array binding signal (z-score) [1]: -0.212 | glycan array binding signal (z-score) [2]: 0.165 | glycan array binding signal (z-score) (GlcNAc(b1-6)GalNAc): -0.657 | glycan array binding signal (z-score) (GlcNAc3Prop(b1-4)GlcNAc): -0.331 | glycan array binding signal (z-score) (Kdn(a2-3)Gal(b1-3)GlcNAc): -0.117 | glycan array binding signal (z-score) (Kdn(a2-3)Gal(b1-4)GlcNAc): 0.651 | glycan array binding signal (z-score) [3]: 3.65 | glycan array binding signal (z-score) [4]: -0.429 | glycan array binding signal (z-score) (Man(a1-2)Man(a1-3)Man): -0.222 | glycan array binding signal (z-score) [5]: -0.206 | glycan array binding signal (z-score) [6]: -0.213 | glycan array binding signal (z-score) [7]: 0.388 | glycan array binding signal (z-score) [8]: -0.182 | glycan array binding signal (z-score) [9]: -0.461 | glycan array binding signal (z-score) [10]: -0.312 | glycan array binding signal (z-score) (Man(a1-3)[Man(a1-6)]Man): -0.59 | glycan array binding signal (z-score) [11]: 1.02 | glycan array binding signal (z-score) [12]: -0.191 | glycan array binding signal (z-score) [13]: -0.496 | glycan array binding signal (z-score) [14]: -0.451 | glycan array binding signal (z-score) (Man(a1-6)Man): -0.129 | glycan array binding signal (z-score) (Man(b1-4)GlcNAc): -0.566 | glycan array binding signal (z-score) (Neu5Ac(a2-3)Gal): -0.08 | glycan array binding signal (z-score) [15]: -0.268 | glycan array binding signal (z-score) [16]: -0.643 | glycan array binding signal (z-score) [17]: 0.146 | glycan array binding signal (z-score) [18]: -0.039 | glycan array binding signal (z-score) [19]: 0.202 | glycan array binding signal (z-score) [20]: -0.213 | glycan array binding signal (z-score) [21]: -0.285 | glycan array binding signal (z-score) [22]: 0.676 | glycan array binding signal (z-score) [23]: -0.532 | glycan array binding signal (z-score) [24]: 0.179 | glycan array binding signal (z-score) [25]: 0.189 | glycan array binding signal (z-score) [26]: -0.223 | glycan array binding signal (z-score) (Neu5Ac(a2-3)Gal(b1-4)Glc): 0.111 | glycan array binding signal (z-score) [27]: 0 | glycan array binding signal (z-score) [28]: 4.44 | glycan array binding signal (z-score) [29]: -0.461 | glycan array binding signal (z-score) [30]: -0.278 | glycan array binding signal (z-score) [31]: -0.432 | glycan array binding signal (z-score) [32]: 0.799 | glycan array binding signal (z-score) [33]: 1.29 | glycan array binding signal (z-score) [34]: -0.63 | glycan array binding signal (z-score) [35]: 0.169
